Experimental data: the supplement of paper PMC5949888
Most values lie at the floor of the assay. Slopes are relative: functional sequences can read slightly below zero.

system: Saccharomyces cerevisiae PS128 hsf1 delta, HSF1(1-493) fusion; assay: growth estimate (transactivation domain function in HSF1 fusion, heat-shock survival) (a.u. (slope of normalised read count over time)); higher = stronger growth at 37°C, i.e. more transactivation activity; conditions: library: random library
Experimental: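 Random 60-nt DNA library encoding peptides of up to 20 aa, fused to the C-terminus of yeast HSF1 residues 1-493 (C-terminal TAD deleted) and expressed from the native HSF1 promoter on a CEN plasmid in hsf1-deleted S. cerevisiae PS128. Cells were selected at 37°C on -trp 5-FOA plates for 0, 2, 4, 6 and 8 days and amplicons were sequenced. Growth estimate is the slope of a robust linear fit of total-sum-normalised read counts (normalised to the first time point) over time, using at least 2 replicates. Sequences are classed functional (TAD activity) above a threshold of -0.13, set from stop-codon control sequences.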

Substance | growth estimate
LTIWSKRYVDISLRCGVLGC | < -0.25
HVKRS | < -0.25
YAIWEME | < -0.25
RPSVVIKRRDSRVGVLFVYT | -0.243
GVVRGTGRLRSSVPTSLHSP | < -0.25
WEDGMFPCPMDNV | -0.246
TPMCSRRCSIGDLVGLWNPG | < -0.25
RRIVH | < -0.25
VWLHWRPPETLGIGLV | < -0.25
LVVAGWSRIASK | < -0.25
DPKCLPYPTG | < -0.25
DLGAFGRVLIGKCYHLSVLF | < -0.25
LRFD | -0.246
ARMQADHQPLGLLSTPTVDL | < -0.25
CYSCHLRALVDNMFRAVSMG | < -0.25
CLRGSCDVAEEGEGRSIGIC | < -0.25
LDWWSRKRTLTCHFTMTGQL | -0.0153
RSSRERAPE | < -0.25
QRINRSGALKQVNFIGWLVV | < -0.25
ARDRHTADFSPSVLAQINWS | < -0.25
RVTGIFLTT | < -0.25
DGGSSFLESRYENWCGNRWS | 76.5
SLSVG | < -0.25
FCPRGQYMLAQTNRVVWRIS | < -0.25
PQVIGWTFVG | < -0.25
RCLSDK | < -0.25

Taken from above.
growth estimate, VWLHWRPPETLGIGLV is entered as < -0.25
growth estimate, RRIVH is entered as < -0.25

(listing goes on)

Substance | growth estimate
ITM | < -0.25
YRREQRGVLGGHGVAFASRS | < -0.25
FSEATRIVRPFSGAGS | < -0.25
CTLNLKSTTGNAVRTTVVFQ | < -0.25
LPTGPTELLVAD | < -0.25
SGCCPRGGMATFVGRVSTSS | < -0.25
DSP | < -0.25
NKRRAHVVGAIQVRRHQCVK | < -0.25
TVLSTGPPS | < -0.25
CVHSPHECIGTVLVIRHRA | < -0.25
LDRGLSDTARLQRFPSSQAR | < -0.25
EATRFWGWDLASAPRSYDPP | < -0.25
VERTNWVT | < -0.25
HRVVGEVGSFCL | < -0.25
AAVDGSTWGSLCRLTAFAIV | < -0.25
VGKCFEGASIHELSLLSSHL | < -0.25
FRAVSDRWMDRSLQHYG | < -0.25
PLPVCCQHYGDGSYRDGC | < -0.25
SMFVRMLDVVCRSGLVVVSG | < -0.25
VGIFVFNHSLGDASMGLGWL | < -0.25
KYSKGGVG | < -0.25
LLFTT | < -0.25
SLNPFMQREQDWGVPQAGHL | < -0.25
CHV | < -0.25
QEYKKMRDRAS | < -0.25
GKRGKIC | < -0.25

Substance | growth estimate
SVTLLPLYALCSMLPGYYGE | < -0.25
EGG | < -0.25
SARKKLYLPGNNGVFTRYAS | < -0.25
RNFIIALFYKLSLPAQRLH | < -0.25
AKHVSPDRILGEYCTSSKRI | < -0.25
QSEKEPR | < -0.25
QLDSRLS | < -0.25
CSPRTGRPTWGTHPRTYPRH | < -0.25
SCISDLVWHSVITVCLRLTR | < -0.25
VTVFAGTYAWVSRTFSRSGQ | -0.222
TCIEIGHKNGQSMRKIALVS | -0.246
TLLHRKGRYSLPLGMGLRGL | < -0.25
VQET | -0.241
ILGCIFGSIIGTKHSTAAFM | < -0.25
TDRCCLSRVAEFCRMVASIR | < -0.25
GMPIGLAGMRKTCSA | < -0.25
GMSY | < -0.25
MVSGSNVCLSCIWSIINWPS | < -0.25
IGHARPRYTT | -0.25
PLNFWLLCPVGKQVGQSTGR | < -0.25
SHGAIQY | < -0.25
THESGPSYFASPTALFILGP | < -0.25
TSH | < -0.25
RQSRDDMQIFIVDPRRHRFV | < -0.25
RKLEAVF | < -0.25
DLSWGVLKGYTTSPRYSRRR | < -0.25

Substance | growth estimate
TGRCNNGGTEVRREKQQRPG | < -0.25
RTRATSPGSKRRCV | < -0.25
GAFILQPYRGV | -0.205
PEPVLCCYDG | < -0.25
GSGGP | < -0.25
MRRAPWSAPHEASAQGNCYY | < -0.25
TRRKLLR | < -0.25
RRRPSTSRRGGARASYADGP | < -0.25
TWERVIKGSRA | < -0.25
GTSLSHHASCSRKLRHRSPR | < -0.25
KVNRASYGVNVGCL | < -0.25
TGRNRGRAKKVTGPMAYAKS | < -0.25
CGDLQRLAYSQGMTGWWEAQ | < -0.25
LAPTSKGNAKGWGMVGALTI | < -0.25
SRAIAFRSHAGVHLEPRVFS | < -0.25
PFDWGTVAR | -0.246
SWLTGQRVGKASGFLEELGK | < -0.25
APQSANGVGHCPVPVVSNPR | < -0.25
GQLG | < -0.25
VRRKIIEP | < -0.25
LILTPRTIIADRIV | < -0.25
LRNVETRARHNTHGTGSSRT | < -0.25
NKVVNTQNYYTAQ | < -0.25
GCPFRRKA | < -0.25
RDRPWLGSPLNPNRQEDY | < -0.25
DPALRDVLFQFTILAQCAAS | < -0.25

Substance | growth estimate
CSRTELPRQERGRW | -0.217
MRFIAVDGHCVVITSHGVPQ | < -0.25
DEFYTLRRRFSRPPLFLSVQ | < -0.25
DVRHTLRGSRSPWGLLRYSP | < -0.25
AAKLTYRLNTRELVQPLSGP | < -0.25
LRLGLVGLRSEIEGITSRRA | < -0.25
QYGQFCG | < -0.25
LSTKARQQRLDVHISRSAET | < -0.25
YTFPRRSPAVNQKGT | < -0.25
RPRGAKR | < -0.25
DLAARSGKYG | -0.217
IPSLDMSGAIGNIVCVCRFR | < -0.25
SEGVWRLAQRQAVVLKRLGA | < -0.25
AFSRPSVRAALDPLRTIPI | < -0.25
DIC | < -0.25
NKRAVRSVGPVSLGVHR | < -0.25
GYLSSG | < -0.25
RITKTSKVASQAVLAMPSLL | < -0.25
ADELSYDRAHVPLT | < -0.25
YRAVGCRSGSHFVSSLTLDG | < -0.25
LAGRSDNQACREVL | < -0.25
ILRLRKREQGRSPVGCQKFV | < -0.25
VRLMNEDTGRKPI | < -0.25
RQIAAASASRARSLYNRGSY | < -0.25
YTNKLDTSRCFRLSGIL | < -0.25
CIDQERRRHEICMNSYTG | < -0.25

Retrieved one by one from the entries so far (two):
Substance | growth estimate
THESGPSYFASPTALFILGP | < -0.25
CVHSPHECIGTVLVIRHRA | < -0.25

The results go on:

Substance | growth estimate
LAAVYGTT | < -0.25
PADS | < -0.25
GGMLGIVFQRLAKARRTGYR | < -0.25
PPGLAES | < -0.25
HGPGRLS | < -0.25
AKFISITIRRSKRHPPRGFR | < -0.25
EVGKVLSVYPCASP | -0.25
DSSIP | < -0.25
CTPTVRKPRPNCQVGLSIPR | < -0.25
LECWCHLASWTHIYIGNFVV | < -0.25
QRAS | < -0.25
FRKRSISR | < -0.25
IVVPPSPAI | < -0.25
NSLPSCLTGEVHVSEWPYAR | < -0.25
LRVMSVATV | < -0.25
TLRSE | < -0.25
RVKS | < -0.25
CVG | < -0.25
SRYVRSPFKMGLGALATIGG | < -0.25
GRSESCTTVAMFMSRP | -0.009
EHGLPRPGHLRAAIRHRLDR | < -0.25
GEHISQ | < -0.25
